Results: PubChem BioAssay AID316 (DTP/NCI, 2004)
The list does not hold the whole screen: it is rich in T/C values a quarter to a half above the control, in often repeated tests (any T/C) and in doses without a T/C. Other doses and runs of a compound stand elsewhere. T/C gives the treated animals as a percentage of the vehicle group. Some entries give survivors of the animals treated and no T/C: the source files T/C as zero there, which appears to mark a toxic dose or a test without result, not a measured value. Some survivor counts are full or nearly so, which does not show that the dose was tolerated: the source hardly ever lists a survival T/C far under the control, and the zero likely stands for such cases as well. Counts of survivors are from the toxicity check (mostly the fifth day) where no day follows; animals may have died later. Schedules are NCI's codes, read here as Q, the interval in days (D) or hours (H), X, the number of doses. Some doses were run more than once; their values stand side by side, smallest first. Some schedule codes hold Z or #, which are not explained here. Where survival is the endpoint, the PubChem record calls one and a half times the control and up active, and a quarter to a half above the control has no call in these data; cut-offs in other NCI protocols can differ. Brackets with × count equal records among those shown. Some T/C values carry the count of animals alive at the toxicity check (mostly the fifth day); where none is given, no animal had died by that day.

System: P1534 leukemia ip, CD2F1 mice, survival T/C
Assay: NCI In Vivo Anticancer Drug Screen. Data for tumor model P1534 Leukemia (intraperitoneal) in CD2F1 (CDF1) mice
Settings: T/C endpoint: mean survival time, higher T/C = longer survival
Protocol: The antitumor activity of compounds was measured in mice bearing transplantable tumors. Survival or tumor size were measured and the results are expressed as the measurement made in the treated group (T) divided by the measurement made in the vehicle treated control group (C). The tumor model used in this assay is P1534 Leukemia (intraperitoneal) in CD2F1 (CDF1) mice

[1] = dose: 200.0 mg/kg/injection, schedule: Q01DX010 (ip), vehicle: saline
[2] = dose: 400.0 mg/kg/injection, schedule: Q01DX010 (ip), vehicle: saline
[3] = dose: 1.5 mg/kg/injection, schedule: Q01DX010 (ip), vehicle: saline
[4] = dose: 112.0 mg/kg/injection, schedule: Q07DX Z (ip), vehicle: saline
[5] = dose: 0.5 mg/kg/injection, schedule: Q01DX010 (ip), vehicle: saline
[6] = dose: 1.0 mg/kg/injection, schedule: Q01DX010 (ip), vehicle: saline
[7] = dose: 2.0 mg/kg/injection, schedule: Q01DX010 (ip), vehicle: saline
[8] = dose: 6.25 mg/kg/injection, schedule: Q01DX010 (ip), vehicle: saline
[9] = dose: 50.0 mg/kg/injection, schedule: Q01DX010 (ip), vehicle: saline
[10] = dose: 62.5 mg/kg/injection, schedule: Q01DX010 (ip), vehicle: saline
[11] = dose: 250.0 mg/kg/injection, schedule: Q01DX010 (ip), vehicle: saline
[12] = dose: 25.0 mg/kg/injection, schedule: Q01DX010 (ip), vehicle: saline

CNCC(O)(C(=O)O)C(=O)O
survivor count [1]: 6 of 6 | survivor count [2]: 2 of 6

C[n+]1c2ccccc2nc2c(N)cc(N)cc21
T/C (dose: 8.0 mg/kg/injection, schedule: Q01DX010 (ip), vehicle: saline): 132 % of control | T/C (dose: 12.0 mg/kg/injection, schedule: Q01DX010 (ip), vehicle: saline): 128 % of control | T/C (dose: 18.0 mg/kg/injection, schedule: Q01DX010 (ip), vehicle: saline): 125 % of control

O=C(C[C@H]1CCC[C@H](CC(=O)c2ccccc2)N1)c1ccccc1
survivor count (dose: 100.0 mg/kg/injection, schedule: Q01DX010 (ip), vehicle: saline): 0 of 6

NC(=O)c1ccc(N)nc1
T/C (dose: 0.5 mg/kg/injection, schedule: Q#A X020 (ip), vehicle: saline): 138 % of control [5 of 6 alive] | T/C (dose: 0.75 mg/kg/injection, schedule: Q01DX010 (ip), vehicle: saline): 125 % of control [4 of 6 alive] | T/C (dose: 1.0 mg/kg/injection, schedule: Q#A X020 (ip), vehicle: saline): 142 % of control | T/C [3]: 136 and 137 % of control | T/C (dose: 3.0 mg/kg/injection, schedule: Q01DX010 (ip), vehicle: saline): 140 % of control | T/C (dose: 3.0 mg/kg/injection, schedule: Q01DX010 (sc), vehicle: saline): 128 % of control | T/C (dose: 3.0 mg/kg/injection, schedule: Q03DX Z (ip), vehicle: saline): 126 % of control | T/C (dose: 6.0 mg/kg/injection, schedule: Q01DX006 (iv), vehicle: saline): 128 % of control | survivor count (dose: 6.0 mg/kg/injection, schedule: Q01DX010 (oral), vehicle: saline): 6 of 6 | survivor count (dose: 6.0 mg/kg/injection, schedule: Q01DX010 (sc), vehicle: saline): 7 of 7 | T/C (dose: 6.0 mg/kg/injection, schedule: Q03DX Z (ip), vehicle: saline): 130 % of control | T/C (dose: 7.0 mg/kg/injection, schedule: Q07DX Z (ip), vehicle: saline): 126 % of control | survivor count (dose: 12.0 mg/kg/injection, schedule: Q01DX006 (iv), vehicle: saline): 7 of 7 | survivor count (dose: 12.0 mg/kg/injection, schedule: Q01DX010 (im), vehicle: saline): 7 of 7 | survivor count (dose: 12.0 mg/kg/injection, schedule: Q01DX010 (oral), vehicle: saline): 5 of 6 | survivor count (dose: 12.0 mg/kg/injection, schedule: Q01DX010 (sc), vehicle: saline): 7 of 7 | T/C (dose: 14.0 mg/kg/injection, schedule: Q01DX001 (ip), vehicle: saline): 126 % of control | T/C (dose: 28.0 mg/kg/injection, schedule: Q01DX001 (ip), vehicle: saline): 125 and 126 % of control | T/C (dose: 28.0 mg/kg/injection, schedule: Q07DX Z (ip), vehicle: saline): 125 and 142 % of control | T/C (dose: 56.0 mg/kg/injection, schedule: Q01DX001 (ip), vehicle: saline): 132 % of control [4 of 6 alive] | survivor count (dose: 56.0 mg/kg/injection, schedule: Q07DX Z (ip), vehicle: saline): 6 of 6 | T/C [4]: 146 % of control [5 of 6 alive] | survivor count [4]: 7 of 7 | survivor count (dose: 224.0 mg/kg/injection, schedule: Q07DX Z (ip), vehicle: saline): 3 of 7

CCC(C)n1ncc2c(N(C)C)ncnc21 (stereo not drawn)
survivor count (dose: 130.0 mg/kg/injection, schedule: Q01DX010 (ip), vehicle: saline): 5 of 6

N#Cc1cn(C2OC(CO)C(O)C2O)c2ncnc(N)c12 (stereo not drawn)
survivor count (dose: 62.5 micrograms/kg/injection, schedule: Q01DX010 (ip), vehicle: saline): 6 of 6 | survivor count (dose: 125.0 micrograms/kg/injection, schedule: Q01DX010 (ip), vehicle: saline): 6 of 6

CC(/C=N/N=C(N)N)=N\NC(N)=S
survivor count [2]: 3 of 6

CC[n+]1c(-c2ccccc2)c2cc(N)ccc2c2ccc(N)cc21
T/C (dose: 5.0 mg/kg/injection, schedule: Q01DX010 (ip), vehicle: saline): 139 % of control [5 of 6 alive]

CS(=O)(=O)OCCN(CCOS(C)(=O)=O)c1ccc(N=O)cc1
T/C [5]: 148 % of control | T/C [6]: 129 % of control | survivor count [7]: 5 of 6 | survivor count (dose: 4.0 mg/kg/injection, schedule: Q01DX010 (ip), vehicle: saline): 1 of 6

CCCCOP(=S)(N1CC1)N1CC1
survivor count (dose: 16.0 mg/kg/injection, schedule: Q01DX010 (ip), vehicle: saline): 6 of 6 | survivor count (dose: 32.0 mg/kg/injection, schedule: Q01DX010 (ip), vehicle: saline): 5 of 6

CC(C)=CCN=C(N)N
survivor count [8]: 6 of 6 | survivor count [9]: 0 of 6

CN(C)[C@@H]1C(=O)C(C(N)=O)=C(O)[C@@]2(O)C(=O)C3=C(O)c4c(O)cccc4C[C@H]3C[C@@H]12
survivor count (dose: 60.0 mg/kg/injection, schedule: Q01DX010 (ip), vehicle: saline): 6 of 6 | survivor count (dose: 120.0 mg/kg/injection, schedule: Q01DX010 (ip), vehicle: saline): 0 of 6

c1ccc(CCSc2ncnc3nc[nH]c23)cc1
survivor count [10]: 6 of 6 | survivor count [11]: 6 of 6

CC(=O)OC(C)(C)/C=C/C(=O)[C@](C)(O)[C@H]1[C@H](O)C[C@@]2(C)[C@@H]3CC=C4[C@@H](C[C@H](O)C(=O)C4(C)C)[C@]3(CO)C(=O)C[C@]12C
survivor count (dose: 0.38 mg/kg/injection, schedule: Q01DX010 (ip), vehicle: saline): 2 of 6

C(CC1CCNCC1)CC1CCNCC1
survivor count [8]: 6 of 6 | survivor count (dose: 12.5 mg/kg/injection, schedule: Q01DX010 (ip), vehicle: saline): 6 of 6 | survivor count [12]: 6 of 6 | survivor count [9]: 0 of 6

O=C(NCCCCC(NC(=O)OCc1ccccc1)C(=O)NCCCNCCCCNCCCNC(=O)C(CCCCNC(=O)OCc1ccccc1)NC(=O)OCc1ccccc1)OCc1ccccc1 (stereo not drawn)
survivor count (dose: 20.0 mg/kg/injection, schedule: Q01DX010 (ip), vehicle: saline): 0 of 6

COc1ccc2c3c(c4cc(OC)c(OC)cc4c2c1)C[C@H]1CCCCN1C3
survivor count [6]: 6 of 6 | survivor count [3]: 3 of 6

CCCNc1ncnc2c1cnn2C
survivor count [9]: 6 of 6

O=NN(CCCl)C(=O)NCCCl
survivor count [12]: 5 of 6 and 6 of 6 | survivor count [9]: 3 of 6 and 5 of 6

CN1CC[C@]23c4c5ccc(O)c4O[C@H]2C(=O)CC[C@H]3[C@H]1C5
survivor count (dose: 64.0 mg/kg/injection, schedule: Q01DX010 (ip), vehicle: saline): 4 of 6

CCn1cnc2c(=S)nc[nH]c21
survivor count [10]: 6 of 6 | survivor count (dose: 125.0 mg/kg/injection, schedule: Q01DX010 (ip), vehicle: saline): 6 of 6 | survivor count [11]: 6 of 6

O=C(CCCNC(=O)OCc1ccccc1)NCCCCCCCCCCNC(=O)CCCNC(=O)OCc1ccccc1
survivor count [1]: 6 of 6 | survivor count [2]: 6 of 6

CC1CCC2(NC1)OC1CC3C4CCC5CC(OC6OC(CO)C(OC7OC(CO)C(O)C(OC8OCC(O)C(O)C8O)C7OC7OC(CO)C(O)C(O)C7O)C(O)C6O)CCC5(C)C4CCC3(C)C1C2C (stereo not drawn)
survivor count (dose: 20.0 mg/kg/injection, schedule: Q01DX010 (sc), vehicle: steroid suspending solution): 0 of 6 | survivor count (dose: 40.0 mg/kg/injection, schedule: Q01DX010 (sc), vehicle: steroid suspending solution): 0 of 6

C1CN1c1nc(N2CC2)nc(N2CC2)n1
T/C (dose: 0.13 mg/kg/injection, schedule: Q01DX010 (ip), vehicle: saline): 100, 105, 108, 110 (2×), 117 % of control | T/C (dose: 0.25 mg/kg/injection, schedule: Q01DX010 (ip), vehicle: saline): 110, 119, 121 (2×), 151, 155 % of control | T/C [5]: 99, 105, 110, 135 % of control | survivor count [5]: 5 of 6 and 6 of 6 | survivor count [6]: 3 of 6, 4 of 6, 6 of 6 | survivor count [7]: 6 of 6

O=P1(N(CCCl)CCCl)NCCCO1 (stereo not drawn)
T/C (dose: 22.5 mg/kg/injection, schedule: Q01DX010 (ip), vehicle: saline): 132 % of control
